# The list shows a part of the results. The main result of the screen is listed elsewhere. These columns were measured beside it and carry no call. The list favours compounds with an active or inconclusive main result. The note in brackets gives the kind of curve behind each potency; many fits are weak.
# Assay: qHTS Assay for Modulators of Lamin A Splicing
# Conditions: HeLa LMNA splicing GFP/RFP minigene ratio, 48 h
# Method in brief: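 Read-out is the ratio of GFP to DsRed2 object intensity, acquired by 488 nm laser-scanning cytometry on HeLa lamin A-EGFP minigene reporter cells. Compound incubation 48 hrs at 37 °C in Opti-MEM with 2% FBS; DMSO 0.5% final.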
# [1] = measured here: RFP viability control channel
# [2] = measured here: GFP splicing reporter channel
SMILES,AC50 [1],AC50 [2]
CC(C)c1ccc(/C=N/NC(=O)CC(=O)NC2CCCCC2)cc1,"0.282 µM [falling, full curve, poor fit]",
CN(Cc1ccco1)c1ccnc(-c2ccoc2)n1,,"31.6 µM [rising, single point]"
COC(=O)c1[nH]c2cccc(Cl)c2c1NC(=O)CN(C)C1CCCCC1,"3.55 µM [rising, full curve, poor fit]","4.47 µM [rising, full curve, poor fit]"
Cc1nn(-c2ccc(C(=O)O)cc2)c(C)c1Cl,,"0.178 µM [rising, full curve, poor fit]"
C=C(C)CNC(=S)N/N=C(\C)c1ccc(Cl)s1,"14.1 µM [falling, partial curve, poor fit]","11.2 µM [falling, partial curve, poor fit]"
CC1(C)CC(N2CCN(c3ccccc3)CC2)=CC(=[N+]2CCCC2)C1,"2.82 µM [rising, full curve]","2.82 µM [rising, full curve, poor fit]"
CCOc1ccc(CN(C)CC(=O)Nc2ccc([N+](=O)[O-])cc2Cl)cc1,"35.5 µM [rising, single point]",
Cc1[nH]n(C2=NCCS2)c(=O)c1N=Nc1cccc(C(F)(F)F)c1,"5.01 µM [falling, partial curve, poor fit]","2 µM [falling, full curve]"
CN1C2CCC1/C(=C\c1ccc(F)cc1)C(=O)/C2=C/c1ccc(F)cc1,"15.8 µM [rising, partial curve]",
C=CCSc1nnc(NC(=O)c2ccc(S(=O)(=O)NCC3CCCO3)cc2)s1 (stereo not drawn),"17.8 µM [rising, single point]",
Nc1ccc(O)cc1C(=O)OCC(=O)c1ccc(C2CCCCC2)cc1,"31.6 µM [rising, single point]","20 µM [rising, single point]"
Cc1cc(NC(=S)N(CCN2CCCCC2)Cc2ccco2)ccc1Cl,,"15.8 µM [falling, partial curve]"
c1ccc2c(c1)CCN(c1ncnc3c1[nH]c1ccccc13)C2,"2.82 µM [rising, partial curve]","7.08 µM [rising, partial curve, poor fit]"
CCCCOc1ccc(C(=O)N/C(=C/C=C/c2ccccc2)C(=O)N2CCOCC2)cc1,"12.6 µM [rising, partial curve]",
NNc1nc(-c2ccccc2)cc(-c2ccccc2O)n1,,"11.2 µM [falling, single point]"
CCCOC(=O)c1c(-c2ccc(C)cc2C)csc1NC(=O)C1C2CCC(O2)C1C(=O)O (stereo not drawn),"10 µM [rising, partial curve, poor fit]","10 µM [rising, partial curve]"
Oc1ccc(-c2nc(-c3ccc(O)c(O)c3)cs2)cc1,"7.94 µM [rising, partial curve]",

# For reference, some entries already given.
SMILES,AC50 [1],AC50 [2]
CC(C)c1ccc(/C=N/NC(=O)CC(=O)NC2CCCCC2)cc1,"0.282 µM [falling, full curve, poor fit]",
CN(Cc1ccco1)c1ccnc(-c2ccoc2)n1,,"31.6 µM [rising, single point]"

# The listing continues:

SMILES,AC50 [1],AC50 [2]
CCOC(=O)c1ccc(NC(=O)c2c(NCc3cccc(OC)c3OC)sc3c2CCC3)cc1,,"0.01 µM [rising, full curve, poor fit]"
CCCC(=O)Nc1sc2c(c1C(=O)Nc1ccccn1)CCCC2,"11.2 µM [falling, single point]","12.6 µM [falling, partial curve]"
COc1ccc(-n2cnc3scc(-c4ccc(OC)c(OC)c4)c3c2=O)cc1,"35.5 µM [falling, single point]","35.5 µM [falling, single point]"
O=C(c1ccc(Cl)cc1)C(Cn1cncn1)C(Sc1ccccc1)c1ccccc1 (stereo not drawn),"31.6 µM [rising, single point]",
CCOc1cc(/C=C/c2nc3ccccc3s2)ccc1OCC(=O)N1CCOCC1,"17.8 µM [rising, partial curve]","10 µM [rising, partial curve, poor fit]"
Cc1oc2c(c1C(=O)c1ccccc1)C(=O)C(=O)c1ccccc1-2,"11.2 µM [falling, partial curve]","10 µM [falling, partial curve]"
CCOC(=O)C(C)On1c(-c2ccc(Cl)cc2)nc2ccc([N+](=O)[O-])cc21 (stereo not drawn),"15.8 µM [rising, single point]",
Cc1cccc(N2CCN(C(=S)c3ccc(-c4ccccc4[N+](=O)[O-])o3)CC2)c1,"1 µM [rising, partial curve, poor fit]",
COc1ccc(CCn2c(C)cc(C(=O)CCl)c2C)cc1OC,"3.98 µM [rising, single point]",
O=C(NC1CCCCC1)C(c1ccncc1)N(C(=O)Cc1cccs1)c1ccccc1 (stereo not drawn),"39.8 µM [falling, partial curve, poor fit]",
COc1ccccc1C/C(N)=N/OC(=O)c1cccc([N+](=O)[O-])c1C,,"17.8 µM [rising, single point]"
CCCCn1nc2cc(C(=O)NCC34CC5CC(CC(C5)C3)C4)ccc2c1OCC,"22.4 µM [rising, single point]","35.5 µM [rising, single point]"
CC(C)n1cc(CN2CCN(CCc3ccccc3)C(CCO)C2)cn1 (stereo not drawn),,"3.98 µM [rising, single point]"
O=C1C(Cc2ccc(Br)cc2)SC(=Nc2ccccc2)N1c1ccccc1 (stereo not drawn),"35.5 µM [rising, single point]",
O=C(Nc1cccc2[nH]ncc12)c1ccc(F)cc1,"4.47 µM [falling, partial curve]",
Cc1cccc(C(=O)Nc2nnc(SCc3cc(=O)n4cccc(C)c4n3)s2)c1,"12.6 µM [rising, partial curve, poor fit]","4.47 µM [rising, partial curve, poor fit]"
O=C(Cc1ccc(Cl)cc1)NCC(c1cccs1)S(=O)(=O)c1ccc(Cl)cc1 (stereo not drawn),"17.8 µM [rising, partial curve]","1.58 µM [rising, partial curve, poor fit]"
